Source: patent US20050266096A1, “New synergetic compositions of vitamins, minerals and trace-elements to stimulate the elimination of intra-cellular lipid deposits” (priority 2004, published 2005)
At least one read-out could not be matched to a standard name with certainty.

Tested on: vascular smooth muscle cells
Assay: Reduction of intracellular lipid deposits in lipid-loaded cell cultures
Type: cell-based
Details: individual element; concentration per row in μg/ml (0.016% RDA); 3 days after exposure; vs untreated control cultures = 100% lipid deposits; n = 24
Procedure: To evaluate the effects of vitamins, minerals & trace-elements on the cellular capacity to eliminate intracellular lipid deposits, the cultures of vascular smooth muscle cells were prepared on plastic cover slips in vitro as described by Shrivastava at al (Meth Expt Find,1994).
A 50-60% cell monolayer was obtained within 4 days of culture. The hyperlipidemic rabbit serum was added to the culture medium, cells were incubated at 37° C.-5% CO2 for 48 h and the presence of intracellular cytoplasmic lipid deposit was quantified (considered 100% lipid deposits) . The culture medium was then replaced by a predefined blank medium containing no vitamins, minerals & trace-elements containing 1% fetal calf serum. Desired concentrations of vitamins, minerals and trace-elements were prepared in the predefined control culture medium by dissolving the test substances in the medium and by replacing the culture medium by the test product containing medium.
The in vitro cytoxicity of each vitamin, mineral and trace-element was determined. […]
The results were expressed a mean percentage decrease in intracellular lipid deposits compared to the untreated control cultures considered as containing 100% lipid deposits.

SMILES: Cc1ncc(CO)c(CO)c1O.Cl [Vitamin B6, pyridoxine hydrochloride]
- Percent decrease in intracellular lipids: 9.9 ± 2.9%
